# Screening data, single-dose tests

Source: ChEMBL document CHEMBL3988442, “University of Dundee, Small-Polar-MMV Screening Library” (2021).

T. brucei: 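Whole-parasite assay of Trypanosoma brucei over 72 hours; the read-out is not stated. Compounds at 30 µM. Direction is inferred from retests: higher values go with stronger inhibition. Values scatter widely below zero; nearly all retest evidence comes from the higher of the two concentrations used. About 64,000 compounds were tested under these conditions; 1.5% (about 940) showed 50% or more at least once.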
Leishmania in macrophages: 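Cell assay of Leishmania donovani living inside macrophages; the read-out is not stated. Compounds at 30 µM. Higher reads as stronger inhibition (inferred: compounds with an IC50 in retests scored well above the rest). Size under these conditions: about 69,000 compounds, about 1,000 of them at 50% or above in at least one test.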

The filed quantity is “Percent Effect” (%).
The record does not define 0% and 100%; most values in the screen are far below 50% and negative numbers occur (in some assays of this library far below -100).
This is an unselected part of the compounds tested.
Two or more numbers in one place are separate tests of the same structure; such repeats can differ widely.
A dash means the value is not listed here; it may have been measured.

structure,T. brucei,Leishmania in macrophages
CC(c1nc(C2CC2)no1)N(C)Cc1ccc2c(c1)OCCO2 (stereo not drawn),-22.57,14.22
CN1CCN([C@@H]2CCN(C3CCOCC3)[C@H]2Cc2cnn(C)c2)CC1.O=C(O)C(F)(F)F.O=C(O)C(F)(F)F.O=C(O)C(F)(F)F,-11.18,7.929
Cc1ccc(N2Cc3nc(=O)n(C(C)C)n3C2=O)cc1,-28.54,6.735
COCCOCC(=O)N(C)Cc1ccc(OCc2cccs2)cc1,-50.99,-4.356
O=C(NCc1nn(-c2ccccc2)c2c1CCC2)NC1CC1,-10.66,20.14
CCc1cnc(NCC(CC)N2CCOCC2)nc1 (stereo not drawn),-11.41,25.71
CC(=O)NCCCNC(=O)N(C)C(C)Cc1ccc(Cl)cc1 (stereo not drawn),-11.68,23.29
N#Cc1ccccc1CN1CCC(CN2CCOCC2)C1 (stereo not drawn),-19.36,1.793
Cn1ncc2c(N3CCC(F)(F)CC3)nc(-c3ccncc3)nc21,1.871,-31.19
COCCNc1cc(-c2ccccc2CCN)c2cc[nH]c2n1,-35.43,31.91
CS(=O)(=O)CCCSCc1cc(F)cc(Br)c1,-10.4,-25.42
O=C(O)C(F)(F)F.c1ccc(-c2ncc3c(n2)C2(CCN(CC4CC4)C2)COC3)cc1 (stereo not drawn),-23.55,-5.985
[H][C@]12CC[C@](O)(c3ccc(F)cc3)[C@@]1([H])CN(C(=O)c1cc(C3CC3)on1)C2,0.6733,-20.94
COCC1CCCN(C(=O)c2cc(Cn3ccc4ccccc43)[nH]n2)C1 (stereo not drawn),12.65,28.18
CCS(=O)(=O)N1CCC2(CCN(Cc3nccs3)CC2)CC1.O=C(O)C(F)(F)F,-31.26,6.883
N#Cc1ccc(N2CCC3(CC2)CC(N2CCOCC2)CO3)cc1.O=C(O)C(F)(F)F (stereo not drawn),-29.73,19.87
CC(C)(C)c1cnc(CN2CCCS2(=O)=O)o1,-58.69,-5.018
CC(C)c1noc(CN(Cc2ccccc2F)C2CC2)n1,-32.37,-3.441
C=C(C)COc1cccc(CNCCc2c[nH]cn2)c1,-5.99,35.17
[H][C@@]12CN(C(=O)c3cccc(C)n3)C[C@]1([H])OCCN2CCN1CCCC1,-99.71,0.03168
CC(=O)Nc1ncc(S(=O)(=O)N2CCCC(C)C2)s1 (stereo not drawn),-30.43,18.74
COCC1Cn2nnc(-c3cnn(C)c3)c2CN1Cc1ccc(C)s1.O=C(O)C(F)(F)F (stereo not drawn),15.85,47.51
Cc1n[nH]c(C2CN(C(=O)c3cc(C)sc3C)CCO2)n1 (stereo not drawn),2.046,2.599
CCc1c(C)nc(C)nc1N1CCC(NCCSc2nnnn2C)CC1,-52.24,15.02
CCOc1cccnc1C(=O)N1CCCN(c2nc(C)cs2)CC1,10.93,-12.74
CN1CCc2nc3cc(C(=O)NCc4cccs4)ccc3c(=O)n2CC1,-2.843,-15.19
Cc1nc(CN(C)CC2CCCN2c2cccnn2)nc2ccccc12 (stereo not drawn),101.1,13.48
Cc1ccccc1CC1(CO)CCCN(c2ncncc2C(C)C)C1 (stereo not drawn),25.91,60.98
N#Cc1cn(C2CC2)c(=O)n(CC(O)c2ccccc2C(F)(F)F)c1=O (stereo not drawn),-,26.07
COc1c(C(=O)NC(C)CC(=O)c2cccs2)c(C)nn1C (stereo not drawn),-21.38,26.4
Cc1cccc(C(=O)N2CCCN(Cc3cscn3)CC2)c1,-,22.93
CCSCCC(=O)NC1CCN(C(C)c2ccccc2)CC1 (stereo not drawn),-30.82,0.6149
O=C(NCC(O)c1ccoc1)Nc1c(F)cccc1F (stereo not drawn),-4.368,-40.22
Cc1ccnc(C(NC(=O)c2oc(C)nc2C)C2CC2)n1 (stereo not drawn),-35.11,-6.126
OC1(CNCCN2CCCc3ccccc32)CCNC1 (stereo not drawn),6.012,12.67
COCCC(=O)N1CCC2(CN(Cc3ccc(OC)c(F)c3)C2)C1,17.87,36.01
Cc1cc(C)n(CCCNC(=O)C(C)NC(=O)c2ccccc2Cl)n1 (stereo not drawn),3.572,4.567
COCc1ncc(CN2CC[C@@](O)(COC)C(C)(C)C2)cn1,-26.02,-27.14
c1cc(-c2nnc(C3(c4ccc5c(c4)OCO5)CCOCC3)o2)ccn1,-11.5,-3.904
O=C(CCn1cncn1)N1CCCC1c1noc(C2CC2)n1 (stereo not drawn),-,19.26
COc1ccccc1CC(C)(C)NC(=O)CC(F)(F)F,-31.92,22.72
COCC1CC2(CCN(Cc3ccc(OC)cc3)CC2)CN1C(C)C.O=C(O)C(F)(F)F.O=C(O)C(F)(F)F (stereo not drawn),33.05,38.57
CCn1cnnc1C1CCN(C(=O)c2cccc(OC)c2OC)CC1,-1.029,13.97
CCc1nc(CCNc2ncccc2C#N)sc1C,-71.08,4.253
COc1cccc(CC(=O)N2CCCN(c3ccnc(C)c3)CC2)c1,-29.25,5.802
Cc1cc2c(=O)n(CC(=O)N3CCn4cccc4C3C(C)C)cnc2s1 (stereo not drawn),-7.761,-13.28
O=C(C(c1ccccc1)S(=O)(=O)c1ccccn1)N1CCCC1 (stereo not drawn),-15.38,10.63
[H][C@@]12CN(Cc3cccnc3)C[C@]1([H])C(=O)NC21CCN(C(C)=O)CC1,-11.07,12.89
CCc1cnc(NCCCN2CCC(O)CC2)nc1,-39.92,15.97
[H][C@]12CC[C@@]3(N=C(CC)N(C)C3=O)[C@@]1([H])CN(C(=O)NCc1ccccc1)C2,-40.32,-22.01
CN1CCN(C2CCN(Cc3noc(C4CC4)n3)CC2)C1=O,-30.95,11.41
Cc1ccc(OCCN2CCC(c3nc(C)n4c(C)csc34)CC2)cc1,8.202,-39.46
CN(C)C(=O)N1CCN(C)c2ncccc2C1,-40.61,10.36
N#Cc1cccc(C(=O)N2CC(c3nc(-c4cccnc4)no3)C2)c1,-38.28,0.5632 and -4.061
COc1cc(C(=O)NCCc2ccccc2OC)on1,101.4,16.47 and -2.779
COc1cccc(CCC(=O)N2CCC[C@@H](N)[C@@H]2c2ccccc2F)c1.Cl,35.53,36.93
COc1ccccc1-c1cc(C(=O)Nc2nc[nH]n2)[nH]n1,-23.44,7.789
O=C1CCCN1Cc1ncn2c1CN(C(=O)Cc1cccs1)CCC2,-45.95,11.88
CNc1nc(C)c(C(=O)NCC(C)(C)N2CCCCC2)s1,1.61,-22.86
NCCn1cc(C(=O)N2CCCCCC2c2ccco2)nn1 (stereo not drawn),-18.67,13.09
NS(=O)(=O)c1cccnc1Nc1c(Cl)cccc1Cl,-4.437,68.36
Cc1[nH]ncc1CCCNC(=O)N1CCOC(C)C1 (stereo not drawn),-19.27,17.56
COc1cccc(COCC(=O)N2CCN(S(C)(=O)=O)CC2)c1,8.944,21.53
Cc1ccc(C(C(=O)NC(C)(C)CN2CCCC2)N(C)C)cc1 (stereo not drawn),-8.3,-34.55

The first 8 entries again:

structure,T. brucei,Leishmania in macrophages
CC(c1nc(C2CC2)no1)N(C)Cc1ccc2c(c1)OCCO2 (stereo not drawn),-22.57,14.22
CN1CCN([C@@H]2CCN(C3CCOCC3)[C@H]2Cc2cnn(C)c2)CC1.O=C(O)C(F)(F)F.O=C(O)C(F)(F)F.O=C(O)C(F)(F)F,-11.18,7.929
Cc1ccc(N2Cc3nc(=O)n(C(C)C)n3C2=O)cc1,-28.54,6.735
COCCOCC(=O)N(C)Cc1ccc(OCc2cccs2)cc1,-50.99,-4.356
O=C(NCc1nn(-c2ccccc2)c2c1CCC2)NC1CC1,-10.66,20.14
CCc1cnc(NCC(CC)N2CCOCC2)nc1 (stereo not drawn),-11.41,25.71
CC(=O)NCCCNC(=O)N(C)C(C)Cc1ccc(Cl)cc1 (stereo not drawn),-11.68,23.29
N#Cc1ccccc1CN1CCC(CN2CCOCC2)C1 (stereo not drawn),-19.36,1.793